Measured data: PubChem BioAssay AID1259308 (NCATS, 2017)
In all, the deposit lists about 59,000 reagents; below is a part drawn at random. About 1,510 of all reagents (2.6%) were called active. 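Calls use total luciferase alone and ignore viability, so some active siRNAs may act by altering cell number.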 Reagents against one gene are numbered here. Further read-outs or replicates are left out here.

- Assay: 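Candidate targets for better recombinant protein yield in mammalian cells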 (primary screen)
- System: human HEK293 embryonic kidney cells stably expressing firefly luciferase (HEK-CMV-Luc2-Hygro)
- Reagent: single siRNA against human genes, 0.8 pmol siRNA per well
- Timing: 72 h
- Detection: 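Luciferase light (ONE-Glo) measured on one replicate plate set and viability (CellTiter-Glo) on the other, scaled to a negative control siRNA, with robust z-scores and luciferase per cell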
- Reading the numbers: total luciferase, z-score: higher = more reporter protein produced
- Active means: 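An siRNA counts as active if its total luciferase robust z-score exceeds 3; genes with two or more such siRNAs out of three were retested with fresh siRNAs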
- Calls: active = raised luciferase; inactive = no rise

total luciferase, z-score, by gene and reagent
NCDN: #1 2.49 inactive; #2 3.07 active; #3 0.45 inactive
SESTD1: #1 -0.26 inactive; #2 -0.0105 inactive; #3 0.193 inactive
HOMER3: #1 0.132 inactive; #2 -1.78 inactive; #3 -0.65 inactive
ERAP2: #1 1.22 inactive; #2 -0.465 inactive; #3 1.45 inactive
ITGA11: #1 1.75 inactive; #2 -0.852 inactive; #3 0.988 inactive
CRIP1: #1 0.801 inactive; #2 -0.483 inactive; #3 1.6 inactive
C8G: #1 -0.201 inactive; #2 -0.732 inactive; #3 -0.0375 inactive
PTCRA: #1 -0.951 inactive; #2 0.188 inactive; #3 2.66 inactive
CASP2: #1 0.182 inactive; #2 0.598 inactive; #3 -0.978 inactive
ZNF385D: #1 0.237 inactive; #2 1.38 inactive; #3 1.58 inactive
RNF32: #1 0.295 inactive; #2 -0.466 inactive; #3 0.583 inactive
TEKTL1: #1 -0.309 inactive; #2 -2.47 inactive; #3 -1.15 inactive
KHNYN: #1 -2.06 inactive; #2 0.235 inactive; #3 -0.687 inactive

Hits, of those listed so far:
total luciferase, z-score, by gene and reagent
NCDN: #2 3.07 active
